Assay results: the supplement of paper PMC7661543
Differences between knockout arms are mostly noise.

Test system: MDA-MB-231
Assay: relative cell number vs DMSO control (72 h) (% of DMSO); higher = less growth inhibition (more cells)
Procedure: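 QMAP-Seq: a pool of 5 breast cancer cell lines (ZR-75-1, SKBR3, HCC-38, MDA-MB-231, BT-20), each carrying 12 doxycycline-inducible Cas9 sgRNA perturbations (11 knockouts plus non-targeting sgNT), was treated with compounds for 72 h at four 10-fold doses (10 nM-10 uM or 1 nM-1 uM range). Barcodes were amplified and sequenced, and cell number was interpolated from 293T spike-in standard curves. The result is expressed as % of the median of DMSO wells. Two biological replicates.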

CCn1c(=O)c2c(nc(/C=C/c3ccc(OC)c(OC)c3)n2C)n(CC)c1=O [Istradefylline]
Conditions	relative cell number
sgRNA knockout: sgATF3, 10 nM	91.8
sgRNA knockout: sgATF3, 100 nM	87
sgRNA knockout: sgATF3, 1000 nM	94
sgRNA knockout: sgATF3, 10000 nM	121.98
sgRNA knockout: sgATF4, 10 nM	88.8
sgRNA knockout: sgATF4, 100 nM	115
sgRNA knockout: sgATF4, 1000 nM	143
sgRNA knockout: sgATF4, 10000 nM	92.3
sgRNA knockout: sgATF6, 10 nM	107
sgRNA knockout: sgATF6, 100 nM	80.9
sgRNA knockout: sgATF6, 1000 nM	105
sgRNA knockout: sgATF6, 10000 nM	120
sgRNA knockout: sgATG7, 10 nM	105
sgRNA knockout: sgATG7, 100 nM	98
sgRNA knockout: sgATG7, 1000 nM	98.4
sgRNA knockout: sgATG7, 10000 nM	90.5
sgRNA knockout: sgERN1, 10 nM	84.2
sgRNA knockout: sgERN1, 100 nM	100
sgRNA knockout: sgERN1, 1000 nM	87.8
sgRNA knockout: sgERN1, 10000 nM	103
sgRNA knockout: sgHSF1, 10 nM	87.8
sgRNA knockout: sgHSF1, 100 nM	88.1
sgRNA knockout: sgHSF1, 1000 nM	91.12
sgRNA knockout: sgHSF1, 10000 nM	82.7
sgRNA knockout: sgHSF2, 10 nM	126
sgRNA knockout: sgHSF2, 100 nM	79.6
sgRNA knockout: sgHSF2, 1000 nM	90.4
sgRNA knockout: sgHSF2, 10000 nM	116
sgRNA knockout: sgKEAP1, 10 nM	88
sgRNA knockout: sgKEAP1, 100 nM	94.7
sgRNA knockout: sgKEAP1, 1000 nM	86.7
sgRNA knockout: sgKEAP1, 10000 nM	72.6
sgRNA knockout: sgNFE2L2, 10 nM	89.7
sgRNA knockout: sgNFE2L2, 100 nM	103
sgRNA knockout: sgNFE2L2, 1000 nM	84.7
sgRNA knockout: sgNFE2L2, 10000 nM	104
sgRNA knockout: sgSLC35F2, 10 nM	103
sgRNA knockout: sgSLC35F2, 100 nM	84.5
sgRNA knockout: sgSLC35F2, 1000 nM	98.9
sgRNA knockout: sgSLC35F2, 10000 nM	109
sgRNA knockout: sgXBP1, 10 nM	87.9
sgRNA knockout: sgXBP1, 100 nM	104
sgRNA knockout: sgXBP1, 1000 nM	93.4
sgRNA knockout: sgXBP1, 10000 nM	98.8

CN(Cc1cnc2nc(N)nc(N)c2n1)c1ccc(C(=O)N[C@@H](CCC(=O)O)C(=O)O)cc1 [Methotrexate]
Conditions	relative cell number
sgRNA knockout: sgATF3, 10 nM	96.8
sgRNA knockout: sgATF3, 100 nM	100
sgRNA knockout: sgATF3, 1000 nM	79.9
sgRNA knockout: sgATF3, 10000 nM	33.7
sgRNA knockout: sgATF4, 10 nM	104
sgRNA knockout: sgATF4, 100 nM	104
sgRNA knockout: sgATF4, 1000 nM	98
sgRNA knockout: sgATF4, 10000 nM	39.7
sgRNA knockout: sgATF6, 10 nM	112
sgRNA knockout: sgATF6, 100 nM	113.4
sgRNA knockout: sgATF6, 1000 nM	81.4
sgRNA knockout: sgATF6, 10000 nM	32
sgRNA knockout: sgATG7, 10 nM	112
sgRNA knockout: sgATG7, 100 nM	90.5
sgRNA knockout: sgATG7, 1000 nM	93.1
sgRNA knockout: sgATG7, 10000 nM	37.6
sgRNA knockout: sgERN1, 10 nM	103
sgRNA knockout: sgERN1, 100 nM	89.4
sgRNA knockout: sgERN1, 1000 nM	77.3
sgRNA knockout: sgERN1, 10000 nM	31.1
sgRNA knockout: sgHSF1, 10 nM	128
sgRNA knockout: sgHSF1, 100 nM	78.3
sgRNA knockout: sgHSF1, 1000 nM	66.9
sgRNA knockout: sgHSF1, 10000 nM	37.6
sgRNA knockout: sgHSF2, 10 nM	92
sgRNA knockout: sgHSF2, 100 nM	80.9
sgRNA knockout: sgHSF2, 1000 nM	75.5
sgRNA knockout: sgHSF2, 10000 nM	38.4
sgRNA knockout: sgKEAP1, 10 nM	106
sgRNA knockout: sgKEAP1, 100 nM	112
sgRNA knockout: sgKEAP1, 1000 nM	67.7
sgRNA knockout: sgKEAP1, 10000 nM	33.1
sgRNA knockout: sgNFE2L2, 10 nM	84
sgRNA knockout: sgNFE2L2, 100 nM	80.8
sgRNA knockout: sgNFE2L2, 1000 nM	79.7
sgRNA knockout: sgNFE2L2, 10000 nM	35.7
sgRNA knockout: sgSLC35F2, 10 nM	85.3
sgRNA knockout: sgSLC35F2, 100 nM	93
sgRNA knockout: sgSLC35F2, 1000 nM	93.6
sgRNA knockout: sgSLC35F2, 10000 nM	29.7
sgRNA knockout: sgXBP1, 10 nM	86.3
sgRNA knockout: sgXBP1, 100 nM	93.5
sgRNA knockout: sgXBP1, 1000 nM	87.1
sgRNA knockout: sgXBP1, 10000 nM	38.7

CCC(C)SSc1ncc[nH]1 (configuration not stated) [PX12]
Conditions	relative cell number
sgRNA knockout: sgATF3, 10 nM	105
sgRNA knockout: sgATF3, 100 nM	115
sgRNA knockout: sgATF3, 1000 nM	96.2
sgRNA knockout: sgATF3, 10000 nM	49.1
sgRNA knockout: sgATF4, 10 nM	105
sgRNA knockout: sgATF4, 100 nM	120
sgRNA knockout: sgATF4, 1000 nM	111
sgRNA knockout: sgATF4, 10000 nM	56
sgRNA knockout: sgATF6, 10 nM	100
sgRNA knockout: sgATF6, 100 nM	110
sgRNA knockout: sgATF6, 1000 nM	96.52
sgRNA knockout: sgATF6, 10000 nM	45.4
sgRNA knockout: sgATG7, 10 nM	98.1
sgRNA knockout: sgATG7, 100 nM	104.5
sgRNA knockout: sgATG7, 1000 nM	82.9
sgRNA knockout: sgATG7, 10000 nM	53.9
sgRNA knockout: sgERN1, 10 nM	124
sgRNA knockout: sgERN1, 100 nM	111
sgRNA knockout: sgERN1, 1000 nM	110
sgRNA knockout: sgERN1, 10000 nM	48.2
sgRNA knockout: sgHSF1, 10 nM	105
sgRNA knockout: sgHSF1, 100 nM	88.9
sgRNA knockout: sgHSF1, 1000 nM	106
sgRNA knockout: sgHSF1, 10000 nM	52.11
sgRNA knockout: sgHSF2, 10 nM	111
sgRNA knockout: sgHSF2, 100 nM	115
sgRNA knockout: sgHSF2, 1000 nM	98
sgRNA knockout: sgHSF2, 10000 nM	46.7
sgRNA knockout: sgKEAP1, 10 nM	118
sgRNA knockout: sgKEAP1, 100 nM	94
sgRNA knockout: sgKEAP1, 1000 nM	115
sgRNA knockout: sgKEAP1, 10000 nM	63.4
sgRNA knockout: sgNFE2L2, 10 nM	93.4
sgRNA knockout: sgNFE2L2, 100 nM	132
sgRNA knockout: sgNFE2L2, 1000 nM	101
sgRNA knockout: sgNFE2L2, 10000 nM	49.9
sgRNA knockout: sgSLC35F2, 10 nM	109
sgRNA knockout: sgSLC35F2, 100 nM	95.8
sgRNA knockout: sgSLC35F2, 1000 nM	93.84
sgRNA knockout: sgSLC35F2, 10000 nM	56.9
sgRNA knockout: sgXBP1, 10 nM	101
sgRNA knockout: sgXBP1, 100 nM	93.9
sgRNA knockout: sgXBP1, 1000 nM	81.9
sgRNA knockout: sgXBP1, 10000 nM	49.2
